This note sets out measurements from the supplement of paper PMC12595434, “Development of retinoid nuclear receptor pathway antagonists through targeting aldehyde dehydrogenase 1A3” (iScience, 2025).

Chains of the proteins cited; added tags and fusions are not shown. Lines headed by an entry give the natural chain unless they say otherwise; changes in a name come on top.
UniProt Q10469: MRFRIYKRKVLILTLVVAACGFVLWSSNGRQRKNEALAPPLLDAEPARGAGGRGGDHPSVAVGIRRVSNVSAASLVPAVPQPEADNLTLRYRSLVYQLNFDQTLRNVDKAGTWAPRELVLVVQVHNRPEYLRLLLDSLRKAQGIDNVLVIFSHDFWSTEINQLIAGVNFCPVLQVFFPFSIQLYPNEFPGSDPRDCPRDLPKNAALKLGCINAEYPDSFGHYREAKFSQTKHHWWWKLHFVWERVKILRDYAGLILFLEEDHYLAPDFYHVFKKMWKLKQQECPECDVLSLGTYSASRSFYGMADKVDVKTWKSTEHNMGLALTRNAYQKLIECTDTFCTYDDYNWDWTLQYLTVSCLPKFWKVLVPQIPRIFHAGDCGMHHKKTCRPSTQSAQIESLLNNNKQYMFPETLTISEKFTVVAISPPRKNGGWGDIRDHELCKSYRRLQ
UniProt Q01581: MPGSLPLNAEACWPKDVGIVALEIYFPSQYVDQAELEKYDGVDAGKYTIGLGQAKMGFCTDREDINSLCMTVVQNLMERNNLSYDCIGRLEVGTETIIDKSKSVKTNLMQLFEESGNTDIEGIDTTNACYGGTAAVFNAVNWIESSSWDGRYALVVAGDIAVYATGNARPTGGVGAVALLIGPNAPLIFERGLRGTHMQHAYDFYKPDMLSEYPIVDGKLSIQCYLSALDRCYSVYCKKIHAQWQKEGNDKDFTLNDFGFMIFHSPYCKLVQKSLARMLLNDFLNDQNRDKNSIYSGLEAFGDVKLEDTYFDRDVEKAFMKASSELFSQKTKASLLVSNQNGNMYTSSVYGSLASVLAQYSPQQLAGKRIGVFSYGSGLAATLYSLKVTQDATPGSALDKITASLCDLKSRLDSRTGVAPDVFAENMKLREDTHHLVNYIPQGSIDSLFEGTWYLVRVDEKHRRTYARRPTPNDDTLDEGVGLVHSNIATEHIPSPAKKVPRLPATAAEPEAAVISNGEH
UniProt Q08AD1: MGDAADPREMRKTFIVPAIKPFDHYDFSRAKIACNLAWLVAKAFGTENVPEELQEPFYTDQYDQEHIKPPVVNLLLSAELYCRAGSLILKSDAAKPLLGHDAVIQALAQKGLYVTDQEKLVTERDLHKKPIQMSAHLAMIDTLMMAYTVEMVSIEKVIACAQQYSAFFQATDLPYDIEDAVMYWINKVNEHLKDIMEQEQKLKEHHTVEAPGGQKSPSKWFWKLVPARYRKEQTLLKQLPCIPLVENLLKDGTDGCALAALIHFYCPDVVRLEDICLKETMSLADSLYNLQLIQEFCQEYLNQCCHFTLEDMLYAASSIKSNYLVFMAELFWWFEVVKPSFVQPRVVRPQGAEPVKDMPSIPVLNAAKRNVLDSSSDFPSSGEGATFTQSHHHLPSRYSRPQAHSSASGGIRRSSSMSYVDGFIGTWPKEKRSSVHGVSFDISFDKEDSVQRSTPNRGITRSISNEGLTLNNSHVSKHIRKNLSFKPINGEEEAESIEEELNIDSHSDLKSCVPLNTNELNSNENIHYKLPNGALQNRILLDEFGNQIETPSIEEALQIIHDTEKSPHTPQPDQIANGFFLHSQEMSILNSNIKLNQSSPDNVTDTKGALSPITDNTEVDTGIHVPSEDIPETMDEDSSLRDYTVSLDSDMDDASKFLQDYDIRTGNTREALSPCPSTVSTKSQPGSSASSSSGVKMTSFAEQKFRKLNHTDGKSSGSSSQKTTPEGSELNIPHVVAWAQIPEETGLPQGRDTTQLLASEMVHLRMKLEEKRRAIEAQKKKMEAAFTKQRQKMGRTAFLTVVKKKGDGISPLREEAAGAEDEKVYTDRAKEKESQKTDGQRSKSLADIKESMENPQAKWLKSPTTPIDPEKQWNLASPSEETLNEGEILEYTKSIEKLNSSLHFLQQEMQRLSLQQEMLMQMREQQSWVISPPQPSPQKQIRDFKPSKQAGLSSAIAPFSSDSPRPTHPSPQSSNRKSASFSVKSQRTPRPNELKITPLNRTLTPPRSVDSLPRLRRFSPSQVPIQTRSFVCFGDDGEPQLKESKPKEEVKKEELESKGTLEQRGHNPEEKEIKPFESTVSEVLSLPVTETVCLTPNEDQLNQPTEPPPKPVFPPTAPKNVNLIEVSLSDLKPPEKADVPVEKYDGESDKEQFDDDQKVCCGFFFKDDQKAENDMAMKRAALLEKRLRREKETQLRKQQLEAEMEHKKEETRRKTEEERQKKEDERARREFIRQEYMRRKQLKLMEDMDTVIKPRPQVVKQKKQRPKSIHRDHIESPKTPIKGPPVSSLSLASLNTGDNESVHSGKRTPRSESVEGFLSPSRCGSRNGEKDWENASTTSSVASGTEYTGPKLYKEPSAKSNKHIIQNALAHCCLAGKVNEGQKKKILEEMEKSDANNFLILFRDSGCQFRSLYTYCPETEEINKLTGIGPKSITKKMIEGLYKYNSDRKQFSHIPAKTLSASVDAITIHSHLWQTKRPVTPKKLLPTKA
UniProt P78356: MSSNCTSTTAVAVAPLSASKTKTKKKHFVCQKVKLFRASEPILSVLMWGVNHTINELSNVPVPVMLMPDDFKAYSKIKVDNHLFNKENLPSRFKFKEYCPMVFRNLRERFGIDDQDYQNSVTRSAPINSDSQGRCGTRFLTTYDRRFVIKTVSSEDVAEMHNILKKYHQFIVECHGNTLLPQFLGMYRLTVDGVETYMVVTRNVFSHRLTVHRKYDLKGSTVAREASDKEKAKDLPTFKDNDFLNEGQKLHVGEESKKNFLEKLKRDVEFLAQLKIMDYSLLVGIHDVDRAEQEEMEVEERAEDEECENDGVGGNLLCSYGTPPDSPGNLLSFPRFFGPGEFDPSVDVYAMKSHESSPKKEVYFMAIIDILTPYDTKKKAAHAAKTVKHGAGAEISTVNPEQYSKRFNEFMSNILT
UniProt Q05639, whole entry: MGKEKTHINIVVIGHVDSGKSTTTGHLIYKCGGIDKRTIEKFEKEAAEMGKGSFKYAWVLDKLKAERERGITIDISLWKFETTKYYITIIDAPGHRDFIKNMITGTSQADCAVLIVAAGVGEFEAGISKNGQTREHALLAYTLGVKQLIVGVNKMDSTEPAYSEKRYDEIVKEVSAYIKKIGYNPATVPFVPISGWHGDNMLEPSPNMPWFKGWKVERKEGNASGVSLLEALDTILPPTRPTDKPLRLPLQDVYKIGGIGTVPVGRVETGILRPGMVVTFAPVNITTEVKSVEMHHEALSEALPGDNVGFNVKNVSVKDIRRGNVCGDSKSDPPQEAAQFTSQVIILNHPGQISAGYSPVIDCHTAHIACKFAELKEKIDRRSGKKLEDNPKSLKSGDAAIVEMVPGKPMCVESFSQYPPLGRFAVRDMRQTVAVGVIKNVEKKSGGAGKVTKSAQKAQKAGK
UniProt Q13011: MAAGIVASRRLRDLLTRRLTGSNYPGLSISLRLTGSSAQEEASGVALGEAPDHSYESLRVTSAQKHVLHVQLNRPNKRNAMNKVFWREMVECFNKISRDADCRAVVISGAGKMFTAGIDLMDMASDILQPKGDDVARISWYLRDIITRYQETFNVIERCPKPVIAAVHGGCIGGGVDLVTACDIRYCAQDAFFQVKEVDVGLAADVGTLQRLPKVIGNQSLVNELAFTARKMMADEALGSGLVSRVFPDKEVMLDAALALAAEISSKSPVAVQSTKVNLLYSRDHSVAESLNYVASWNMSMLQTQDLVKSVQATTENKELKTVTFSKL
UniProt Q12834, whole entry: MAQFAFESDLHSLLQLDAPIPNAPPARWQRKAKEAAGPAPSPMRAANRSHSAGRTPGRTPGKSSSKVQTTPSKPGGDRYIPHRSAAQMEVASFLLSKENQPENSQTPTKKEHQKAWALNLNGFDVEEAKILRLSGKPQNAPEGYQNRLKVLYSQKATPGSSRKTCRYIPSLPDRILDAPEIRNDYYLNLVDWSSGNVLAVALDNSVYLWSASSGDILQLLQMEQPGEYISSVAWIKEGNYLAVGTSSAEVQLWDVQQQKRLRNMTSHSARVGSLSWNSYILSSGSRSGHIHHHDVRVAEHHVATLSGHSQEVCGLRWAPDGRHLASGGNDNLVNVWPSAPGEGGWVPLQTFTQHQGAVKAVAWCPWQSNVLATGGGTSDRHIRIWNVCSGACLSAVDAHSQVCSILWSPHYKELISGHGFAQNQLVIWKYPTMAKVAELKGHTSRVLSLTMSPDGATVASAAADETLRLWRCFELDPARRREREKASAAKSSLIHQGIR
UniProt P98175: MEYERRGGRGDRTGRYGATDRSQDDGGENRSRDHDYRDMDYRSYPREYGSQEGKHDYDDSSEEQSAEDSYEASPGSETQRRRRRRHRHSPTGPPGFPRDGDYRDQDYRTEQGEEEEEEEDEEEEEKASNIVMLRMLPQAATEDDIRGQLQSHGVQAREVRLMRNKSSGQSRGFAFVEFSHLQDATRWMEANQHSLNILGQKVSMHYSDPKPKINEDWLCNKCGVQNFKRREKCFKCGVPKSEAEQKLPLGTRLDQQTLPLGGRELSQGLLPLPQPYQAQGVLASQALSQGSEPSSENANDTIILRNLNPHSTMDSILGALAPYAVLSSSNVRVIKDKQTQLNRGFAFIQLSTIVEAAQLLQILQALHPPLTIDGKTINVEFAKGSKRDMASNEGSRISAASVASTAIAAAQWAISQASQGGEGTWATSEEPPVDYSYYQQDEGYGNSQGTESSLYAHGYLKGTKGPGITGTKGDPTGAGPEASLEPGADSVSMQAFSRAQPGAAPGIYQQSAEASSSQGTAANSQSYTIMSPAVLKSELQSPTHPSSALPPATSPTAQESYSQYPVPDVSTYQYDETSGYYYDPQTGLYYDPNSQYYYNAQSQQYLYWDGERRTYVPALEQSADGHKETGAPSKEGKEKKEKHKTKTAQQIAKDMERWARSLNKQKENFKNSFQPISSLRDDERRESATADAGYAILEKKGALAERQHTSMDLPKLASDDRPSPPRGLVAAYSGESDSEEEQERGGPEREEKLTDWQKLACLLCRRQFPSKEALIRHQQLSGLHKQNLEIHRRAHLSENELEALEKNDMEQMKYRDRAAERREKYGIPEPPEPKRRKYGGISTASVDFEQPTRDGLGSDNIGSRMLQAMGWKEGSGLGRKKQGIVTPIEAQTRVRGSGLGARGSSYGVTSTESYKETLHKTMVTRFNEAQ
UniProt Q13017, whole entry: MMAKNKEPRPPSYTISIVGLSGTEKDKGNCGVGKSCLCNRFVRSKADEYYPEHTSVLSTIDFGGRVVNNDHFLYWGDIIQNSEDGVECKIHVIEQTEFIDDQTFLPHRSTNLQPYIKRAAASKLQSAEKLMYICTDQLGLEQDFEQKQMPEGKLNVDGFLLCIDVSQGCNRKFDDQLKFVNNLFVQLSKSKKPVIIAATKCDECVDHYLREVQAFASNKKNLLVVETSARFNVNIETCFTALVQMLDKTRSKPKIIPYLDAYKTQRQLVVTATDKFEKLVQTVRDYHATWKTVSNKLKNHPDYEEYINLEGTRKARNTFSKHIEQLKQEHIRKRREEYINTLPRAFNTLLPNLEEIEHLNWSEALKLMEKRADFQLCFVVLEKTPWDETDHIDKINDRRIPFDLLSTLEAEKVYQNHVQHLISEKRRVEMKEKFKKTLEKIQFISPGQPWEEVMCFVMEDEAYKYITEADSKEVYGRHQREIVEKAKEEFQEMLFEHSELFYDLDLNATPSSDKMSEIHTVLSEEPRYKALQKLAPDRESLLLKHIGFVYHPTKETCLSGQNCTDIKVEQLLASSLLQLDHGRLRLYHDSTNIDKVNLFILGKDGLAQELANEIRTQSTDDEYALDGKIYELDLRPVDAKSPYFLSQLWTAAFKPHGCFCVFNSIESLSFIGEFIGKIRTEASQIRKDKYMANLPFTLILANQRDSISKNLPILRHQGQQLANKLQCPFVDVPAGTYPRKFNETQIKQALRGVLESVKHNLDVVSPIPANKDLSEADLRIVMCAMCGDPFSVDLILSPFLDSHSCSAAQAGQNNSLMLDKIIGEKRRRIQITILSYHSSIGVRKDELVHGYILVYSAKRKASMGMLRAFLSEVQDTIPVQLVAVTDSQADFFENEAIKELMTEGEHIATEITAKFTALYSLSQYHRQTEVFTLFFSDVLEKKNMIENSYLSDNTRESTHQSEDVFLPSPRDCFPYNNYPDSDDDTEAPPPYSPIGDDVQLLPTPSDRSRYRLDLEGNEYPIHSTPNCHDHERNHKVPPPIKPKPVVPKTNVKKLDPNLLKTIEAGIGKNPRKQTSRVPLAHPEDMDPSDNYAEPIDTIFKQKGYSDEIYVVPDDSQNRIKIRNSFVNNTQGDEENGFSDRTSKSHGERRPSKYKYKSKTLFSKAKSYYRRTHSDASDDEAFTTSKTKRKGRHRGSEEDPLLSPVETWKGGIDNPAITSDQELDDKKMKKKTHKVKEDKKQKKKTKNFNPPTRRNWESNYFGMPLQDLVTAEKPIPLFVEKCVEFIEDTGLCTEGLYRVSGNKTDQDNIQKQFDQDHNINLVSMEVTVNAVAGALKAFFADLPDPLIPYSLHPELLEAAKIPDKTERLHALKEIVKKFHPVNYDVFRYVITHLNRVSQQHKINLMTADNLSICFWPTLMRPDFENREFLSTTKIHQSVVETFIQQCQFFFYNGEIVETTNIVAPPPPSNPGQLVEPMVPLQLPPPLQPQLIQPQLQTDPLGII

The list shows a part of the results. This is a noisy data set.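 Tm was set to 64 °C where no melting was found, and many curves are irregular.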

Compound in one assay: CCc1cnccc1C(=O)Nc1cc2c(cc1F)NC(=O)CC2
The assay can be described thus: melting temperature shift (DMSO Tm minus MBE1-treated Tm) in cellular thermal proteome profiling; higher = less thermal stabilization by MBE1 (negative = stabilized by MBE1). To be noted: A375; MBE1 concentration: 100 nM.
For the target UniProt Q13009, the melting temperature shift is -1.6 °C.

As for UniProt Q12840, the melting temperature shift worked out at 0.44 °C.

Take MGAT2 (UniProt Q10469): the melting temperature shift was -0.469 °C.

Consider UniProt P83369, for which the melting temperature shift was -1.48 °C.

Consider HMGCS1 (UniProt Q01581), for which the melting temperature shift was -0.63 °C.

In the case of UniProt P78524, the melting temperature shift is 1.23 °C.

As to MRPS25 (UniProt P82663), the melting temperature shift was -1.18 °C.

Regarding PMPCA (UniProt Q10713), the melting temperature shift was -0.563 °C.

TWF1 (UniProt Q12792): the melting temperature shift is -0.583 °C.

In the case of CAMSAP2 (UniProt Q08AD1), the melting temperature shift stood at 0.403 °C.

For UniProt P78540, the melting temperature shift is -0.774 °C.

As to RAD51 (UniProt Q06609), the melting temperature shift is -0.293 °C.

On to PIP4K2B (UniProt P78356), for which the melting temperature shift turned out to be 0.195 °C.

Regarding MRPS35 (UniProt P82673), the melting temperature shift worked out at 0.904 °C.

Consider UniProt Q05084, for which the melting temperature shift amounted to 0.366 °C.

Take UniProt Q05639: the melting temperature shift was -0.315 °C.

For the target UniProt Q08174, the melting temperature shift was -2.94 °C.

With ECH1 (UniProt Q13011), the melting temperature shift was -1.15 °C.

Regarding CDC20 (UniProt Q12834), the melting temperature shift was determined as 0.953 °C.

For GOLGA3 (UniProt Q08378), the melting temperature shift was -0.403 °C.

For the target RBM6 (UniProt P78332), the melting temperature shift was -0.192 °C.

For the target UniProt P98175, the melting temperature shift is -1.49 °C.

For SMARCB1 (UniProt Q12824), the melting temperature shift is -0.301 °C.

On to TMF1 (UniProt P82094), for which the melting temperature shift is -1.66 °C.

Consider UniProt Q04724, for which the melting temperature shift is -0.678 °C.

CPSF1 (UniProt Q10570): the melting temperature shift was 0.379 °C.

Consider ARHGAP5 (UniProt Q13017), for which the melting temperature shift is -0.423 °C.

Turning to CSTF3 (UniProt Q12996), the melting temperature shift is -0.373 °C.

For the target APLP2 (UniProt Q06481), the melting temperature shift was -0.58 °C.

For the target PPP3CA (UniProt Q08209), the melting temperature shift was -1.53 °C.

On to UniProt Q12955, for which the melting temperature shift is -0.809 °C.

On to UniProt Q12765, for which the melting temperature shift was determined as 0.348 °C.

In the case of UniProt Q07343, the melting temperature shift was -1.39 °C.

With RNASEL (UniProt Q05823), the melting temperature shift is -1.01 °C.

As to MRPS15 (UniProt P82914), the melting temperature shift turned out to be 0.91 °C.

Turning to UniProt Q06190, the melting temperature shift worked out at 1.64 °C.

On to TMEM115 (UniProt Q12893), for which the melting temperature shift was -0.397 °C.

The assay is the same for the next values; noted with them: A375; MBE1 concentration: 1 uM.
For UniProt Q13009, the melting temperature shift was 0.122 °C.

Regarding UniProt Q12840, the melting temperature shift was 0.305 °C.

On to MGAT2 (UniProt Q10469), for which the melting temperature shift was found to be 0.208 °C.

UniProt P83369: the melting temperature shift was -0.711 °C.

HMGCS1 (UniProt Q01581): the melting temperature shift amounted to 0.402 °C.

As to UniProt P78524, the melting temperature shift was 0.659 °C.

Regarding MRPS25 (UniProt P82663), the melting temperature shift is -0.715 °C.

PMPCA (UniProt Q10713): the melting temperature shift worked out at 0.287 °C.

Consider TWF1 (UniProt Q12792), for which the melting temperature shift amounted to 0.496 °C.

Turning to CAMSAP2 (UniProt Q08AD1), the melting temperature shift is 0.568 °C.

In the case of UniProt P78540, the melting temperature shift was 0 °C.

With RAD51 (UniProt Q06609), the melting temperature shift stood at 0.22 °C.

PIP4K2B (UniProt P78356): the melting temperature shift is -0.452 °C.

Regarding MRPS35 (UniProt P82673), the melting temperature shift is 0 °C.

As to UniProt Q05084, the melting temperature shift came to 0.653 °C.

On to UniProt Q05639, for which the melting temperature shift was -0.423 °C.

For UniProt Q08174, the melting temperature shift was -1.36 °C.

Turning to ECH1 (UniProt Q13011), the melting temperature shift was -0.674 °C.

As for CDC20 (UniProt Q12834), the melting temperature shift was found to be 1.71 °C.

Take GOLGA3 (UniProt Q08378): the melting temperature shift was 0.202 °C.

Consider RBM6 (UniProt P78332), for which the melting temperature shift is -0.359 °C.

Consider UniProt P98175, for which the melting temperature shift was -0.532 °C.

On to SMARCB1 (UniProt Q12824), for which the melting temperature shift is -0.211 °C.

In the case of TMF1 (UniProt P82094), the melting temperature shift came to 0.404 °C.

On to UniProt Q04724, for which the melting temperature shift was -0.69 °C.

Turning to CPSF1 (UniProt Q10570), the melting temperature shift is 0.0977 °C.

As to ARHGAP5 (UniProt Q13017), the melting temperature shift was -0.0706 °C.

As to CSTF3 (UniProt Q12996), the melting temperature shift stood at 0.269 °C.

Regarding APLP2 (UniProt Q06481), the melting temperature shift is -0.458 °C.

Take PPP3CA (UniProt Q08209): the melting temperature shift amounted to 0.731 °C.

As for UniProt Q12955, the melting temperature shift is 0.348 °C.

Consider UniProt Q12765, for which the melting temperature shift was determined as 0.501 °C.

As for UniProt Q07343, the melting temperature shift was -3.17 °C.

Consider RNASEL (UniProt Q05823), for which the melting temperature shift was determined as 0.00641 °C.

As for MRPS15 (UniProt P82914), the melting temperature shift was 1.34 °C.

As for UniProt Q06190, the melting temperature shift was -0.0122 °C.

For the target TMEM115 (UniProt Q12893), the melting temperature shift was -0.263 °C.
